According to PMC12736948:
These are yes or no findings as the source states them, for the method shown. In cells and extracts the contact can be indirect. Some results given as binding are weak or reduced against the parent protein; the word gives no strength.

Chains of the proteins cited; added tags and fusions are not shown. Residues count along the entry.
UniProt Q8CGK5, residues 21-535: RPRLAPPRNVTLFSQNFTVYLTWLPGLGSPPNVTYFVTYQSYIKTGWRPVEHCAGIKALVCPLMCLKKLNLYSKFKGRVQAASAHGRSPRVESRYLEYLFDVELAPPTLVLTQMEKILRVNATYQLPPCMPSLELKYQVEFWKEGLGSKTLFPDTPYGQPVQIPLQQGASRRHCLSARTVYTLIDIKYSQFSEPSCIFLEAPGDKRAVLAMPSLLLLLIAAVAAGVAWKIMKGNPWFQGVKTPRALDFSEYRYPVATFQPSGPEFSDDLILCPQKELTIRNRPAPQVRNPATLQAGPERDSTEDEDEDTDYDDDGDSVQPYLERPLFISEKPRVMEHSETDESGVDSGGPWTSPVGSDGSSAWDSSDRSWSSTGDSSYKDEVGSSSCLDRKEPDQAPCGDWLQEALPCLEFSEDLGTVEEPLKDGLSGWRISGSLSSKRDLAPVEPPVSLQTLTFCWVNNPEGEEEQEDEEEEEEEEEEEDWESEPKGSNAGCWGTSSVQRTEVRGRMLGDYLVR

Key:
[1] = molecular target: T1, Phospholipid scramblase 1 (Plscr1), mouse (mouse (endogenous in mouse lung)) (UniProt Q9JJ00); assay: proximity ligation
T1 sequence: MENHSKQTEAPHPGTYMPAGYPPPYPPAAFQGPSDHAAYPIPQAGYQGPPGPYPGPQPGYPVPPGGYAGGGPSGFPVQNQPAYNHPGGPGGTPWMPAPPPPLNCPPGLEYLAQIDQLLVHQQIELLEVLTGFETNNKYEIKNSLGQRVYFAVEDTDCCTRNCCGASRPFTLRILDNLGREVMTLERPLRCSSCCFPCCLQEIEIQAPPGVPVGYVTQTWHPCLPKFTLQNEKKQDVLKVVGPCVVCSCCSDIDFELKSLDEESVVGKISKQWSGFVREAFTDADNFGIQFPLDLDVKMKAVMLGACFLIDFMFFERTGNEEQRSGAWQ

[2] = molecular target: T1, Phospholipid scramblase 1 (Plscr1), mouse (mouse (endogenous in mouse lung)); assay: co-IP; 500 μg of mouse lung lysate (RIPA buffer), uninfected or IAV-infected WT mice; anti-Plscr1 polyclonal antibody or control IgG on Catch and Release v2.0 spin columns, 4 °C overnight; western blot for Ifn-λr1
[3] = molecular target: PLSCR1(H262Y), transduced into PLSCR1-/- A549 cells (UniProt O15162); assay: proximity ligation
[4] = molecular target: T2, PLSCR1(WT), transduced into PLSCR1-/- A549 cells (UniProt O15162); assay: proximity ligation
T2 sequence: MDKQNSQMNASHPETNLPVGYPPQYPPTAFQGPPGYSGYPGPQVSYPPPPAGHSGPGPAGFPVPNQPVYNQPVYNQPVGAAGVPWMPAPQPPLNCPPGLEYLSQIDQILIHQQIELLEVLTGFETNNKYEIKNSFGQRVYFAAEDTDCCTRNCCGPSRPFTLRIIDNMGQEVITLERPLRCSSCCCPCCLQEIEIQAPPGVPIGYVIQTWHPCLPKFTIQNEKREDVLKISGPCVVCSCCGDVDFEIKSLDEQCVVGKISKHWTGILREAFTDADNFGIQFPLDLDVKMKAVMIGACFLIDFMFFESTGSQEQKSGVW

[5] = molecular target: T3, Phospholipid scramblase 1 (PLSCR1), endogenous in PLSCR1+/+ A549 cells (human (endogenous in A549)) (UniProt O15162); assay: proximity ligation
T3 sequence: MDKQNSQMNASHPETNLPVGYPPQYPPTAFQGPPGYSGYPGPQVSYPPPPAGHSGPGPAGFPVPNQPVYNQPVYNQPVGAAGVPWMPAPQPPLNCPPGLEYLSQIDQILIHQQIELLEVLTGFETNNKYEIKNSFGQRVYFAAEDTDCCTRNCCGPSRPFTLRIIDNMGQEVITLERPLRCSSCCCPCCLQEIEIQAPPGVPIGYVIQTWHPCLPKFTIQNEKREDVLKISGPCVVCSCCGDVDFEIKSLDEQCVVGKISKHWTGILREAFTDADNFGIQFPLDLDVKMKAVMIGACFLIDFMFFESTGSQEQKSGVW

[6] = molecular target: PLSCR1(F281A), transduced into PLSCR1-/- A549 cells (UniProt O15162); assay: proximity ligation

Measured: binding

Interferon-lambda receptor 1 (Ifn-λr1), mouse (from UniProt Q8CGK5 21-535)
binds: [1] | [2]

B1: Interferon-lambda receptor 1 (IFN-λR1), endogenous in A549 cells (receptor, UniProt Q8IU57 21-520)
chain: RPRLAPPQNVTLLSQNFSVYLTWLPGLGNPQDVTYFVAYQSSPTRRRWREVEECAGTKELLCSMMCLKKQDLYNKFKGRVRTVSPSSKSPWVESEYLDYLFEVEPAPPVLVLTQTEEILSANATYQLPPCMPPLDLKYEVAFWKEGAGNKTLFPVTPHGQPVQITLQPAASEHHCLSARTIYTFSVPKYSKFSKPTCFLLEVPEANWAFLVLPSLLILLLVIAAGGVIWKTLMGNPWFQRAKMPRALDFSGHTHPVATFQPSRPESVNDLFLCPQKELTRGVRPTPRVRAPATQQTRWKKDLAEDEEEEDEEDTEDGVSFQPYIEPPSFLGQEHQAPGHSEAGGVDSGRPRAPLVPSEGSSAWDSSDRSWASTVDSSWDRAGSSGYLAEKGPGQGPGGDGHQESLPPPEFSKDSGFLEELPEDNLSSWATWGTLPPEPNLVPGGPPVSLQTLTFCWESSPEEEEEARESEIEDSDAGSWGAESTQRTEDRGRTLGHYMAR
binds: [3] | [4] | [5] | [6]
